PubChem BioAssay AID1259308 | NCATS – 2017

Aim: 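Knock-downs that increase output of a recombinant reporter protein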 (primary screen)
System: human HEK293 embryonic kidney cells stably expressing firefly luciferase (HEK-CMV-Luc2-Hygro)
Knock-down reagent: single siRNA against human genes, 0.8 pmol siRNA per well
Duration: 72 h
Measurement: 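Reporter luminescence and viable-cell signal on separate replicate plates, given as percent of non-targeting control and median/MAD z-scores, plus per-cell luciferase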
Direction: total luciferase, z-score and total luciferase, % of control: higher = more reporter protein produced; luciferase per cell, z-score: higher = more reporter output per viable cell; viable cells, % of control: higher = more viable cells
Active means: 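An siRNA counts as active if its total luciferase robust z-score exceeds 3; genes with two or more such siRNAs out of three were retested with fresh siRNAs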
Meaning of the calls: active = raised luciferase; inactive = no rise
Shown is an unselected part of about 59,000 deposited reagents. About 1,510 of all reagents (2.6%) were called active. 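Calls use total luciferase alone and ignore viability, so some active siRNAs may act by altering cell number.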 The numbers tell different reagents against one gene apart.

target	siRNA no.	total luciferase, z-score	total luciferase, % of control	luciferase per cell, z-score	viable cells, % of control	Call
C2orf15	1	-0.146	79	-0.615	104	inactive
C2orf15	2	-0.414	73.7	-0.579	95.9	inactive
C2orf15	3	1.29	108	0.0739	118	inactive
KRTAP7-1	1	1.08	103	1.08	87.1	inactive
KRTAP7-1	2	-0.427	73.4	-0.613	96.4	inactive
KRTAP7-1	3	0.259	87	-0.401	108	inactive
CASP7	1	-0.391	74.1	-0.75	101	inactive
CASP7	2	-1.11	59.9	0.109	65	inactive
CASP7	3	0.677	95.3	-0.0801	109	inactive
P4HA1	1	-0.717	67.6	-0.283	81.4	inactive
P4HA1	2	0.863	99	1.47	75.2	inactive
P4HA1	3	-1.03	61.5	-1.24	95.1	inactive
FABP5P10	1	1.99	121	1.46	92.3	inactive
FABP5P10	2	-1.46	52.9	-0.86	74.1	inactive
FABP5P10	3	1.93	120	2.12	76.8	inactive
OR51A7	1	-0.419	73.6	0.239	77.2	inactive
OR51A7	2	-0.547	71	-0.694	95.2	inactive
OR51A7	3	0.186	85.6	0.276	88.9	inactive
ITGB1	1	-0.306	75.8	0.0115	84.5	inactive
ITGB1	2	0.225	86.4	0.64	81.5	inactive
ITGB1	3	-0.316	75.6	0.351	77	inactive
ADGRL2	1	-0.136	79.2	-1.06	117	inactive
ADGRL2	2	-0.319	75.5	-0.513	96.6	inactive
ADGRL2	3	0.107	84	-0.538	108	inactive
ZNF112	1	1.19	106	1.07	89.2	inactive
ZNF112	2	-0.949	63	-1.11	94.2	inactive
ZNF112	3	-0.316	75.6	-0.818	105	inactive
ARL13B	1	-0.855	64.9	-0.346	79.4	inactive
ARL13B	2	4.86	179	4.73	57.4	active
ARL13B	3	-0.276	76.4	-0.331	93.1	inactive
DZANK1	1	-0.243	77.1	-0.537	99.2	inactive
DZANK1	2	-0.214	77.6	-0.728	105	inactive
DZANK1	3	1.17	105	1.4	81.3	inactive
PWP2	1	0.394	89.7	1.25	72.1	inactive
PWP2	2	0.72	96.2	0.8	87.1	inactive
PWP2	3	-1.27	56.7	-1.52	94.5	inactive
HOMEZ	1	-0.532	71.3	-0.786	98	inactive
HOMEZ	2	2.08	123	1.75	86.8	inactive
HOMEZ	3	1.03	102	1.21	83.2	inactive
PRR34	1	3.27	147	2.1	94.5	active
PRR34	2	4.59	173	2.77	93.2	active
PRR34	3	-2.15	39.1	-2.25	78.9	inactive
SEMA6B	1	1.12	104	1.2	84.9	inactive
SEMA6B	2	0.112	84.1	-0.147	97.7	inactive
SEMA6B	3	0.918	100	0.354	102	inactive
BAG4	1	0.543	92.7	-0.0643	105	inactive
BAG4	2	4.53	172	3.2	82.6	active
BAG4	3	0.0117	82.1	0.076	89.9	inactive
PRDM5	1	-0.259	76.7	-0.235	91.2	inactive
PRDM5	2	-0.596	70	-0.878	98.6	inactive
PRDM5	3	1.3	108	5.15	31	inactive
PDCD1	1	1.54	112	1.81	77.9	inactive
PDCD1	2	-0.576	70.4	0.817	63.5	inactive
PDCD1	3	1.25	107	1.14	88.4	inactive
ANGEL1	1	-0.101	79.9	-0.829	111	inactive
ANGEL1	2	-0.348	75	0.213	79.2	inactive
ANGEL1	3	0.171	85.3	0.256	89.1	inactive
CD3G	1	-0.269	76.5	-0.478	97	inactive
CD3G	2	-1.97	42.7	-1.93	79.3	inactive
CD3G	3	0.849	98.8	0.0422	109	inactive
ARHGAP4	1	1.33	108	0.917	95.1	inactive
ARHGAP4	2	-1	61.9	0.407	62.2	inactive
ARHGAP4	3	-0.819	65.6	0.118	71.1	inactive
SEPTIN7P2	1	0.291	87.7	0.485	86.2	inactive
SEPTIN7P2	2	-0.763	66.7	-0.932	95.3	inactive
SEPTIN7P2	3	-0.00512	81.8	-0.434	102	inactive
OR5D14	1	-0.207	77.8	-0.716	105	inactive
OR5D14	2	0.041	82.7	-0.599	108	inactive
OR5D14	3	-1.39	54.3	-0.65	72	inactive
SNIP1	1	-0.0155	81.6	0.173	87.1	inactive
SNIP1	2	-0.21	77.7	0.277	80.7	inactive
SNIP1	3	-0.497	72	0.838	64.5	inactive
AMER2	1	-0.0781	80.3	-0.202	94.7	inactive
AMER2	2	1.15	105	1.48	79.2	inactive
AMER2	3	0.955	101	1.2	82.1	inactive
